# Experimental data taken from US20250302809A1, “GLP1 PHARMACEUTICAL COMPOSITIONS” (Eli Lilly and Company, priority 2022, published 2025).
# The name of at least one read-out is uncertain.
# Test: permeability
# Assay type: physicochemical
smiles,measurement,value
"Cc1cc(-n2nc3c(c2-n2ccn(-c4ccc5c(cnn5C)c4F)c2=O)[C@H](C)N(C(=O)c2cc4cc([C@H]5CCOC(C)(C)C5)ccc4n2[C@@]2(c4noc(=O)[nH]4)C[C@@H]2C)CC3)cc(C)c1F [GLP1RA, 3-[(1S,2S)-1-[5-[(4S)-2,2-dimethyloxan-4-yl]-2-[(4S)-2-(4-fluoro-3,5-dimethylphenyl)-3-[3-(4-fluoro-1-methylindazol-5-yl)-2-oxoimidazol-1-yl]-4-methyl-6,7-dihydro-4H-pyrazolo[4,3-c]pyridine-5-carbonyl]indol-1-yl]-2-methylcyclopropyl]-4H-1,2,4-oxadiazol-5-one]",permeability,poorly permeable
